Reference: paper PMC11488585
Results are given in words; binding and its absence hold for the method and conditions named. In cells and extracts the contact can be indirect. A yes stands for co-enrichment or nearness to the bait. Other partners may have been found.

Sequences of proteins named here, by UniProt entry; tags and fusion partners are left off. A change or cut given only in a name is not applied to a line headed by its entry.
UniProt Q8N6T7: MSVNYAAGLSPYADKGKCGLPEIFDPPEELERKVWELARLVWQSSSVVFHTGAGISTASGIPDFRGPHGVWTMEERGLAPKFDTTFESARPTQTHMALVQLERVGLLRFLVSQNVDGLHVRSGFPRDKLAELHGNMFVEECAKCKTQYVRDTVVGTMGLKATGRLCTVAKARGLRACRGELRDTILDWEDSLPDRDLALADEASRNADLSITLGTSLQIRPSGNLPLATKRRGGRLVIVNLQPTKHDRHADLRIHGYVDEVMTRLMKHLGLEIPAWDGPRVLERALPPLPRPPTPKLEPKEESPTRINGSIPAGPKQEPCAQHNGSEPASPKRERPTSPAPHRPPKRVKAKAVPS
UniProt P05556: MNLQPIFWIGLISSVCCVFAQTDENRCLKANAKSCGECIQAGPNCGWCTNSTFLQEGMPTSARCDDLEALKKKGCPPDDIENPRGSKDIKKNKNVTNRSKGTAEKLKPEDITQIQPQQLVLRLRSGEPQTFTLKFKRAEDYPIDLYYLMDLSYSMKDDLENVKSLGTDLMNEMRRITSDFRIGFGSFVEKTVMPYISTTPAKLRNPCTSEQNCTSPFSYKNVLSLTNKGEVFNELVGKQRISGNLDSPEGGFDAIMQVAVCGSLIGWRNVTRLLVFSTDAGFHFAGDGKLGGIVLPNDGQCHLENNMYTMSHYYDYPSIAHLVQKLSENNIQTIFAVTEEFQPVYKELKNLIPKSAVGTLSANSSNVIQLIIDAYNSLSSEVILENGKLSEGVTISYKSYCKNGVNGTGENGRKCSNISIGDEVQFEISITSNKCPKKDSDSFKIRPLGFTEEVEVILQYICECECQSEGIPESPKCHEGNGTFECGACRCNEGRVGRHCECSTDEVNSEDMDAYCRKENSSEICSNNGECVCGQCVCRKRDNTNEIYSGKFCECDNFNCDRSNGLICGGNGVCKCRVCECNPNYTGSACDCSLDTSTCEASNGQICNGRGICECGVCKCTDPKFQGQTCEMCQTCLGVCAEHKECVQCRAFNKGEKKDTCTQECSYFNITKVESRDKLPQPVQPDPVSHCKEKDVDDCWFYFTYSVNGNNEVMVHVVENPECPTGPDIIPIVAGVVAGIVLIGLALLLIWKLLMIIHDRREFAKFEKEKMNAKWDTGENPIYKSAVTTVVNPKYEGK
UniProt Q13485: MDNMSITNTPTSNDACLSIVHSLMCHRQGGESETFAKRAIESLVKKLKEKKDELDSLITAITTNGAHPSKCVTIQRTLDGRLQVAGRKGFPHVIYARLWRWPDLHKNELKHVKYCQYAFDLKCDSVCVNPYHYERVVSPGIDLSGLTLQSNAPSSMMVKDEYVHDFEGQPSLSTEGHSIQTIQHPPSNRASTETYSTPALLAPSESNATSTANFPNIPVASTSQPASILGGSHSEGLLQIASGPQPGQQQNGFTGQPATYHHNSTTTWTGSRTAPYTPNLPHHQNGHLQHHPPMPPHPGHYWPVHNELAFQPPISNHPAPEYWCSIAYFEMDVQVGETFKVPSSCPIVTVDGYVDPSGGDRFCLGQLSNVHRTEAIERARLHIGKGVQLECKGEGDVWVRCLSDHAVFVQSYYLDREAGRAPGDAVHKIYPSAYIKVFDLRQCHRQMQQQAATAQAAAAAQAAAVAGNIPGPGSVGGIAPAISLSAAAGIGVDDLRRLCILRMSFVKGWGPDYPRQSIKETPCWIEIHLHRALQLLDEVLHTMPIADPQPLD

Biological target: ubiquitin-specific protease 10 (USP10), overexpressed from a lentivirus (UniProt Q14694)
Test: affinity purification with mass spectrometry; PC cells overexpressing USP10 from a lentivirus; NP40 lysate; IP with anti-USP10 antibody or control IgG; trypsin digest; LC-MS/MS

Row | binding | Substance
1 | binds | SIRT6 (from UniProt Q8N6T7 1-355)
2 | binds | ITGB1 (from UniProt P05556 21-798)
3 | binds | RAF1 (from UniProt P04049 1-648)
4 | binds | SMAD4 (from UniProt Q13485 1-552)
